# Assay results published in PMC8224457.
# Sequences of proteins named here, by UniProt entry; tags and fusion partners are left off.
# UniProt P09429: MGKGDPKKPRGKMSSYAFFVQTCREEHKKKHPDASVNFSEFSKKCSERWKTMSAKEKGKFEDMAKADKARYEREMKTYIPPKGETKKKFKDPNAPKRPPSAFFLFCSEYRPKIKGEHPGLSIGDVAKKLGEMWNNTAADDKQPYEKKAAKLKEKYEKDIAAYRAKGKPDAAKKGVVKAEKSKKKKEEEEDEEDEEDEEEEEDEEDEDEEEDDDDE
# UniProt P26599: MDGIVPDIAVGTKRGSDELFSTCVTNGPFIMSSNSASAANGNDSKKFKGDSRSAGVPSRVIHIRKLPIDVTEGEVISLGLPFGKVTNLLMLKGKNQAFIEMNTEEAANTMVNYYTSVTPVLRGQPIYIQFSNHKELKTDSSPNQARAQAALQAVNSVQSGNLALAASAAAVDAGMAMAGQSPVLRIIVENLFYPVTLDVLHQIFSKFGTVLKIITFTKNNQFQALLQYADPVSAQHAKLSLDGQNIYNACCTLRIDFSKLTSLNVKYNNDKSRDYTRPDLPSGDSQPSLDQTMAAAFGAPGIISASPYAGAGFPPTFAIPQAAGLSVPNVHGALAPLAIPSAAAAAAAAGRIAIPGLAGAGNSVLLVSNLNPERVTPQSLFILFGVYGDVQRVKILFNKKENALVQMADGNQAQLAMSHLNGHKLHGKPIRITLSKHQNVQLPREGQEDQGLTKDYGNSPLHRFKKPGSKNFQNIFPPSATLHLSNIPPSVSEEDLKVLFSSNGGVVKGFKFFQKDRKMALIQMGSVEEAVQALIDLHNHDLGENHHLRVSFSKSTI
# UniProt P38159: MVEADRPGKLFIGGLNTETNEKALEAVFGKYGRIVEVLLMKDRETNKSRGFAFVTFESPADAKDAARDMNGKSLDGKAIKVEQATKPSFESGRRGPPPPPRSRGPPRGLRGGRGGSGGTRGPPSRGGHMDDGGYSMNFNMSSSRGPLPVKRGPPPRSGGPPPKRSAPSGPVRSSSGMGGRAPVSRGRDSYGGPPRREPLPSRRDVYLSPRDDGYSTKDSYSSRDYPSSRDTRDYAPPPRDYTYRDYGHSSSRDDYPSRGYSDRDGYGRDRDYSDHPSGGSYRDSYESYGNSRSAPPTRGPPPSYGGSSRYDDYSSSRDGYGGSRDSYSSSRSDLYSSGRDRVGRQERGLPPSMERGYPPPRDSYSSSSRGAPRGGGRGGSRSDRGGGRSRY
# UniProt Q9NYF8: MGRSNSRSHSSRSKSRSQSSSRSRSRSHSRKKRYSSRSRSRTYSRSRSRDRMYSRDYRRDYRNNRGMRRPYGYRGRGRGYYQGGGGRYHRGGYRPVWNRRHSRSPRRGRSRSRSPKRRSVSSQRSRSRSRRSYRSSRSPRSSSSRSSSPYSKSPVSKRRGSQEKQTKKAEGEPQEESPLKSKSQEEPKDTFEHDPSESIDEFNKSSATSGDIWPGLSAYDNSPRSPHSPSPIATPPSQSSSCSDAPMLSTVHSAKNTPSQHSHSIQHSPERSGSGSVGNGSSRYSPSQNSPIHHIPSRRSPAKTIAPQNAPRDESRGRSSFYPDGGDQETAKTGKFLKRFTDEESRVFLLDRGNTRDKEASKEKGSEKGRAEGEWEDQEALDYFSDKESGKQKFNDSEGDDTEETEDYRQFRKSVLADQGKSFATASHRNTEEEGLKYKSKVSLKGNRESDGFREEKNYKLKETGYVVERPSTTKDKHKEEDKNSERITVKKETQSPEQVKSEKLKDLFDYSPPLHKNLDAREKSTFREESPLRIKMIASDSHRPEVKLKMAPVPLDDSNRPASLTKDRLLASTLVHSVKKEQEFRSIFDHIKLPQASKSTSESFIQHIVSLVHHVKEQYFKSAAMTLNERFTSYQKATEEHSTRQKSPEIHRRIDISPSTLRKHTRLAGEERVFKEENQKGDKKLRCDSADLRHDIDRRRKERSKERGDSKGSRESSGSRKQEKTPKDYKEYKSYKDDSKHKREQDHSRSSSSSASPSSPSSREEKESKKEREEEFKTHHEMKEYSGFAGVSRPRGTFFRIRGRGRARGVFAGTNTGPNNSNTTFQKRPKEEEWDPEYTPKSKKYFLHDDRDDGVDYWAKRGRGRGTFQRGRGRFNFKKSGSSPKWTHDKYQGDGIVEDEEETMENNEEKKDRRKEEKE
# No constants are given. Whether binding was seen depends on the method and setting. In cells and extracts the contact can be indirect. These calls come from enrichment with a bait or labelling near it, and not all partners need be listed.
# Biological target: high-mobility group box 1 (HMGB1) protein (human (endogenous in IMR90)) (UniProt P09429)
# Assay: affinity purification with mass spectrometry; anti-HMGB1 (PCRP-HMGB1-4F10, DSHB) on protein-G magnetic beads; lysate of proliferating IMR90 (20 mM Tris-HCl pH 8.0, 1% NP-40, 150 mM NaCl, 2 mM EDTA), sonicated, RNase A treated; 4°C overnight; three replicates
row,Molecule,binding
1,PTBP1 (from UniProt P26599 1-557),binds
2,RBMX (from UniProt P38159 1-391),binds
3,BCLAF1 (from UniProt Q9NYF8 1-920),binds
4,"ILF3 (protein, UniProt Q12906 1-894) MRPMRIFVNDDRHVMAKHSSVYPTQEELEAVQNMVSHTERALKAVSDWIDEQEKGSSEQAESDNMDVPPEDDSKEGAGEQKTEHMTRTLRGVMRVGLVAKGLLLKGDLDLELVLLCKEKPTTALLDKVADNLAIQLAAVTEDKYEILQSVDDAAIVIKNTKEPPLSLTIHLTSPVVREEMEKVLAGETLSVNDPPDVLDRQKCLAALASLRHAKWFQARANGLKSCVIVIRVLRDLCTRVPTWGPLRGWPLELLCEKSIGTANRPMGAGEALRRVLECLASGIVMPDGSGIYDPCEKEATDAIGHLDRQQREDITQSAQHALRLAAFGQLHKVLGMDPLPSKMPKKPKNENPVDYTVQIPPSTTYAITPMKRPMEEDGEEKSPSKKKKKIQKKEEKAEPPQAMNALMRLNQLKPGLQYKLVSQTGPVHAPIFTMSVEVDGNSFEASGPSKKTAKLHVAVKVLQDMGLPTGAEGRDSSKGEDSAEETEAKPAVVAPAPVVEAVSTPSAAFPSDATAEQGPILTKHGKNPVMELNEKRRGLKYELISETGGSHDKRFVMEVEVDGQKFQGAGSNKKVAKAYAALAALEKLFPDTPLALDANKKKRAPVPVRGGPKFAAKPHNPGFGMGGPMHNEVPPPPNLRGRGRGGSIRGRGRGRGFGGANHGGYMNAGAGYGSYGYGGNSATAGYSQFYSNGGHSGNASGGGGGGGGGSSGYGSYYQGDNYNSPVPPKHAGKKQPHGGQQKPSYGSGYQSHQGQQQSYNQSPYSNYGPPQGKQKGYNHGQGSYSYSNSYNSPGGGGGSDYNYESKFNYSGSGGRSGGNSYGSGGASYNPGSHGGYGGGSGGGSSYQGKQGGYSQSNYNSPGSGQNYSGPPSSYQSSQGGYGRNADHSMNYQYR",binds
5,"SRSF7 (protein, UniProt Q16629 1-238) MSRYGRYGGETKVYVGNLGTGAGKGELERAFSYYGPLRTVWIARNPPGFAFVEFEDPRDAEDAVRGLDGKVICGSRVRVELSTGMPRRSRFDRPPARRPFDPNDRCYECGEKGHYAYDCHRYSRRRRSRSRSRSHSRSRGRRYSRSRSRSRGRRSRSASPRRSRSISLRRSRSASLRRSRSGSIKGSRYFQSPSRSRSRSRSISRPRSSRSKSRSPSPKRSRSPSGSPRRSASPERMD",binds
6,"TRA2B (protein, UniProt P62995 1-288) MSDSGEQNYGERESRSASRSGSAHGSGKSARHTPARSRSKEDSRRSRSKSRSRSESRSRSRRSSRRHYTRSRSRSRSHRRSRSRSYSRDYRRRHSHSHSPMSTRRRHVGNRANPDPNCCLGVFGLSLYTTERDLREVFSKYGPIADVSIVYDQQSRRSRGFAFVYFENVDDAKEAKERANGMELDGRRIRVDFSITKRPHTPTPGIYMGRPTYGSSRRRDYYDRGYDRGYDDRDYYSRSYRGGGGGGGGWRAAQDRDQIYRRRSPSPYYSRGGYRSRSRSRSYSPRRY",binds
7,"ZC3H18 (protein, UniProt Q86VM9 1-953) MDVAESPERDPHSPEDEEQPQGLSDDDILRDSGSDQDLDGAGVRASDLEDEESAARGPSQEEEDNHSDEEDRASEPKSQDQDSEVNELSRGPTSSPCEEEGDEGEEDRTSDLRDEASSVTRELDEHELDYDEEVPEEPAPAVQEDEAEKAGAEDDEEKGEGTPREEGKAGVQSVGEKESLEAAKEKKKEDDDGEIDDGEIDDDDLEEGEVKDPSDRKVRPRPTCRFFMKGNCTWGMNCRFIHPGVNDKGNYSLITKADPFPPNGAPPLGPHPLMPANPWGGPVVDEILPPPPPEPPTESAWERGLRHAKEVLKKATIRKEQEPDFEEKRFTVTIGEDEREFDKENEVFRDWNSRIPRDVRDTVLEPYADPYYDYEIERFWRGGQYENFRVQYTETEPYHNYRERERERERENRQRERERERERDRERERRQRERERERERERDKERQRRKEEWERERAKRDEKDRQHRDRDREKEREKEKGKPKPRSPQPPSRQAEPPKKEAATTGPQVKRADEWKDPWRRSKSPKKKLGVSVSPSRARRRRKTSASSASASNSSRSSSRSSSYSGSGSSRSRSRSSSYSSYSSRSSRHSSFSGSRSRSRSFSSSPSPSPTPSPHRPSIRTKGEPAPPPGKAGEKSVKKPAPPPAPPQATKTTAPVPEPTKPGDPREARRKERPARTPPRRRTLSGSGSGSGSSYSGSSSRSRSLSVSSVSSVSSATSSSSSAHSVDSEDMYADLASPVSSASSRSPAPAQTRKEKGKSKKEDGVKEEKRKRDSSTQPPKSAKPPAGGKSSQQPSTPQQAPPGQPQQGTFVAHKEIKLTLLNKAADKGSRKRYEPSDKDRQSPPPAKRPNTSPDRGSRDRKSGGRLGSPKPERQRGQNSKAPAAPADRKRQLSPQSKSSSKVTSVPGKASDPGAASTKSGKASTLSRREELLKQLKAVEDAIARKRAKIPGKA",binds
